Measurements reported in patent US6265443A, “Method for treating neuronal injury with carboxyfullerene” (priority 1997, dated 2001).

Assay: Spin-label/EPR membrane parameters (5- or 16-doxyl ketostearic acid in brain lipids)
Set-up: species or system mouse
Conditions: 5-doxylstearic acid; for Order parameter: control 0.88; for Correlation time: control 5.1
Protocol: Values are mean±SEM, n=8-12 per condition. I=p<0.05 vs. untreated injury condition, using ANOVA followed by Student-Newman-Keuls test for multiple comparisons. **=p<0.05 R-3b different than O-3a. […] The spin labels were added to lipids extracted from adult mouse brain at a ratio of 1:100. EPR settings were the same as those listed in the legend for FIGS. 9A and 9B.
^a Order parameter, S = a(T_.cent. - T .cent.)/(T - T ),
^b Correlation time, tc = 6.5 × 10^-10 wo [(ho
^c Lipid/aqueous partition factor, f = hL /hA, where hL

`O=C(O)C1(C(=O)O)C23c4c5c6c7c8c9c%10c%11c%12c%13c%14c%15c(c6c6c4c4c%16c%17c%18c(c%19c%20c2c5c8c2c%20c5c%19c8c%19c%20c(c%21c%12c%12c%22c%23c(c(c%188)C%198C(C(=O)O)(C(=O)O)C%21%228)c%17c8c4c6c%15c(c%12%14)c%238)c%11c(c92)c%205)C%1613)C71C(C(=O)O)(C(=O)O)C%13%101` (stereo not shown) [R-3b] gave an Order parameter of 0.86 and a Correlation time of 4.5 ns.
Work on `O=C(O)C1(C(=O)O)C23c4c5c6c7c8c4-c4c2c2c9c%10c%11c%12c(c-5c5c%13c%14c%15c%16c%17c(c-7c7c%18c%19c%20c%21c(c4C%204C(C(=O)O)(C(=O)O)C874)c2c2c9c4c%11c7c(c%13%12)c%14c8c%16c9c(c%18%17)c%19c%11c%21c2c2c4c7c8c9c%112)C%152C(C(=O)O)(C(=O)O)C652)C%1013` (stereo not shown) [O-3a] yielded an Order parameter of 0.84 ± 0.01 and a Correlation time of 5.7 ± 0.5 ns.
